Results taken from ChEMBL document CHEMBL4513141, “CO-ADD screening of NIH (USA) - Clinical Collection” (2021).
This is one part of the list. Results with a measured potency or affinity are listed apart.

test system: Acinetobacter baumannii; conditions: Concentration 20 uM; ASSAY_TEST Inhibition of Bacterial Growth; detection method Absorption (OD600); MEDIA CAMHB; plate type 384well; NBS; CORNING #3640; time 18 hr

| SMILES | Inhibition [%] |
| --- | --- |
| C[C@]12C=CC(=O)C=C1CC[C@@H]1[C@@H]2[C@@H](O)C[C@@]2(C)[C@H]1CC[C@]2(O)C(=O)COC(=O)CCC(=O)[O-].[Na+] [PREDNISOLONE SODIUM SUCCINATE] | 7.06 |
| CN(C)CCOC(C)(c1ccccc1)c1ccccn1.O=C(O)CCC(=O)O (stereo not drawn) [DOXYLAMINE SUCCINATE] | 21.19 |
| CS(=O)(=O)c1ccc(-c2cc(Br)sc2-c2ccc(F)cc2)cc1 [DUP-697] | 10.38 |
| CCC(=O)O[C@]1(C(=O)SCF)[C@H](C)C[C@H]2[C@@H]3C[C@H](F)C4=CC(=O)C=C[C@]4(C)[C@@]3(F)[C@@H](O)C[C@@]21C [FLUTICASONE PROPIONATE] | 8.93 |
| CC(C(=O)O)c1cccc(C(=O)c2ccccc2)c1 (stereo not drawn) [KETOPROFEN] | 24.16 |
| COc1cc(/C=C/c2ccc(O)cc2)cc(OC)c1 [PTEROSTILBENE] | 28.58 |
| CN(CCO)CC(O)Cn1cnc2c1c(=O)n(C)c(=O)n2C.O=C(O)c1cccnc1 (stereo not drawn) [XANTHINOL NIACINATE] | 27.77 |
| Nc1nc2c(ncn2COCCO)c(=O)[nH]1 [ACYCLOVIR] | 6.13 |
| CCOc1cc(CC(=O)N[C@@H](CC(C)C)c2ccccc2N2CCCCC2)ccc1C(=O)O [REPAGLINIDE] | 15.61 |
| Cc1occc(=O)c1O [MALTOL] | 26.74 |
| C[C@]12CCC(=O)C=C1CC[C@@H]1[C@@H]2C(=O)C[C@@]2(C)[C@H]1CC[C@]2(O)C(=O)CO [CORTISONE] | 18.48 |
| CC(C(O)c1ccc(O)cc1)N1CCC(Cc2ccccc2)CC1.O.O=C(O)C(O)C(O)C(=O)O (stereo not drawn) | 29.41 |
| O=C(NCCN1CCOCC1)c1ccc(Cl)cc1 [MOCLOBEMIDE] | 4.07 |
| CC(=O)CCCCn1c(=O)c2c(ncn2C)n(C)c1=O [PENTOXIFYLLINE] | 28.38 |
| O=c1c(O[C@@H]2O[C@H](CO)[C@@H](O)[C@H](O)[C@H]2O)c(-c2ccc(O)c(O)c2)oc2cc(O)cc(O)c12 [ISOQUERCETIN] | 25.15 |
| CCCCNc1cc(C(=O)O)cc(S(N)(=O)=O)c1Oc1ccccc1 [BUMETANIDE] | 31.98 |
| Cl.NC12CC3CC(CC(C3)C1)C2 [AMANTADINE HYDROCHLORIDE] | 16.01 |

Not a retest: entries from further up.

| SMILES | Inhibition [%] |
| --- | --- |
| C[C@]12C=CC(=O)C=C1CC[C@@H]1[C@@H]2[C@@H](O)C[C@@]2(C)[C@H]1CC[C@]2(O)C(=O)COC(=O)CCC(=O)[O-].[Na+] [PREDNISOLONE SODIUM SUCCINATE] | 7.06 |
| CN(C)CCOC(C)(c1ccccc1)c1ccccn1.O=C(O)CCC(=O)O (stereo not drawn) [DOXYLAMINE SUCCINATE] | 21.19 |

(cont.)

| SMILES | Inhibition [%] |
| --- | --- |
| CCC(=C(c1ccccc1)c1ccc(OCCN(C)C)cc1)c1ccccc1 | 8.59 |
| CC(=O)O[C@]1(C(C)=O)CC[C@H]2[C@@H]3C[C@H](C)C4=CC(=O)CC[C@]4(C)[C@H]3CC[C@@]21C [MEDROXYPROGESTERONE ACETATE] | 28.19 |
| C[C@@H]1C[C@H]2[C@@H]3C[C@H](F)C4=CC(=O)C(Cl)=C[C@]4(C)[C@@]3(F)[C@@H](O)C[C@]2(C)[C@@]1(O)C(=O)CO [HALOMETASONE] | 11.85 |
| CC(=O)CCCCn1cnc2c1c(=O)n(C)c(=O)n2C [LOMIFYLLINE] | 29.93 |
| CC(=O)OCC(=O)NCCCOc1cccc(CN2CCCCC2)c1.Cl [ROXATIDINE ACETATE HYDROCHLORIDE] | 13.84 |
| CC1(C)S[C@@H]2[C@H](/N=C/N3CCCCCC3)C(=O)N2[C@H]1C(=O)O [AMDINOCILLIN] | 29.39 |
| Cc1cc2c(s1)Nc1ccccc1N=C2N1CCN(C)CC1 [OLANZAPINE] | 19.99 |
| CCN(CC)CCOC(=O)c1ccc(N)cc1.Cl [PROCAINE HYDROCHLORIDE] | 24.17 |
| O=C(O)c1cc(/N=N/c2ccc(S(=O)(=O)Nc3ccccn3)cc2)ccc1O [SULFASALAZINE] | 13.81 |
| COc1ccc(OC)c(C(O)CNC(=O)CN)c1.Cl (stereo not drawn) [MIDODRINE HYDROCHLORIDE] | 26.31 |
| CC(N)C12CC3CC(CC(C3)C1)C2.Cl (stereo not drawn) [RIMANTADINE HYDROCHLORIDE] | 23.31 |
| O=C1c2c(O)cc(O)cc2O[C@H](c2ccc(O)c(O)c2)[C@@H]1O | 15.13 |
| CN(C)CCC(c1ccc(Cl)cc1)c1ccccn1.O=C(O)/C=C\C(=O)O (stereo not drawn) [CHLORPHENIRAMINE MALEATE] | 7.38 |
| NC(Cc1cc(I)c(Oc2ccc(O)c(I)c2)c(I)c1)C(=O)O (stereo not drawn) [RATHYRONINE] | 30.68 |
| Cc1ncc([N+](=O)[O-])n1CC(C)O (stereo not drawn) [SECNIDAZOLE] | 28.53 |
| Cc1nc2ccccn2c(=O)c1CCN1CCC(C(=O)c2ccc(F)cc2)CC1 [PIRENPERONE] | 8.81 |
